Data as given in PMC10787067, “EBF2 Links KMT2D‐Mediated H3K4me1 to Suppress Pancreatic Cancer Progression via Upregulating KLLN” (Advanced Science, 2023).
No constants are given. Whether binding was seen depends on the method and setting. In cells and extracts the contact can be indirect. A yes stands for co-enrichment or nearness to the bait. Other partners may have been found.

B1: CYR61 (protein, UniProt O00622 25-381)
chain: TCPAACHCPLEAPKCAPGVGLVRDGCGCCKVCAKQLNEDCSKTQPCDHTKGLECNFGASSTALKGICRAQSEGRPCEYNSRIYQNGESFQPNCKHQCTCIDGAVGCIPLCPQELSLPNLGCPNPRLVKVTGQCCEEWVCDEDSIKDPMEDQDGLLGKELGFDASEVELTRNNELIAVGKGSSLKRLPVFGMEPRILYNPLQGQKCIVQTTSWSQCSKTCGTGISTRVTNDNPECRLVKETRICEVRPCGQPVYSSLKKGKKCSKTKKSPEPVRFTYAGCLSVKKYRPKYCGSCVDGRCCTPQLTRTVKMRFRCEDGETFSKNVMMIQSCKCNYNCPHANEAAFPFYRLFNDIHKFRD
B2: TGFBR3 (protein, UniProt Q03167 21-851)
chain: GPEPGALCELSPVSASHPVQALMESFTVLSGCASRGTTGLPQEVHVLNLRTAGQGPGQLQREVTLHLNPISSVHIHHKSVVFLLNSPHPLVWHLKTERLATGVSRLFLVSEGSVVQFSSANFSLTAETEERNFPHGNEHLLNWARKEYGAVTSFTELKIARNIYIKVGEDQVFPPKCNIGKNFLSLNYLAEYLQPKAAEGCVMSSQPQNEEVHIIELITPNSNPYSAFQVDITIDIRPSQEDLEVVKNLILILKCKKSVNWVIKSFDVKGSLKIIAPNSIGFGKESERSMTMTKSIRDDIPSTQGNLVKWALDNGYSPITSYTMAPVANRFHLRLENNAEEMGDEEVHTIPPELRILLDPGALPALQNPPIRGGEGQNGGLPFPFPDISRRVWNEEGEDGLPRPKDPVIPSIQLFPGLREPEEVQGSVDIALSVKCDNEKMIVAVEKDSFQASGYSGMDVTLLDPTCKAKMNGTHFVLESPLNGCGTRPRWSALDGVVYYNSIVIQVPALGDSSGWPDGYEDLESGDNGFPGDMDEGDASLFTRPEIVVFNCSLQQVRNPSSFQEQPHGNITFNMELYNTDLFLVPSQGVFSVPENGHVYVEVSVTKAEQELGFAIQTCFISPYSNPDRMSHYTIIENICPKDESVKFYSPKRVHFPIPQADMDKKRFSFVFKPVFNTSLLFLQCELTLCTKMEKHPQKLPKCVPPDEACTSLDASIIWAMMQNKKTFTKPLAVIHHEAESKEKGPSMKEPNPISPPIFHGLDTLTVMGIAFAAFVIGALLTGALWYIYSHTGETAGRQQVPTSPPASENSSAAHSIGSTQSTPCSSSSTA
B3: TSPYL2 (protein, UniProt Q9H2G4 1-693)
chain: MDRPDEGPPAKTRRLSSSESPQRDPPPPPPPPPLLRLPLPPPQQRPRLQEETEAAQVLADMRGVGLGPALPPPPPYVILEEGGIRAYFTLGAECPGWDSTIESGYGEAPPPTESLEALPTPEASGGSLEIDFQVVQSSSFGGEGALETCSAVGWAPQRLVDPKSKEEAIIIVEDEDEDERESMRSSRRRRRRRRRKQRKVKRESRERNAERMESILQALEDIQLDLEAVNIKAGKAFLRLKRKFIQMRRPFLERRDLIIQHIPGFWVKAFLNHPRISILINRRDEDIFRYLTNLQVQDLRHISMGYKMKLYFQTNPYFTNMVIVKEFQRNRSGRLVSHSTPIRWHRGQEPQARRHGNQDASHSFFSWFSNHSLPEADRIAEIIKNDLWVNPLRYYLRERGSRIKRKKQEMKKRKTRGRCEVVIMEDAPDYYAVEDIFSEISDIDETIHDIKISDFMETTDYFETTDNEITDINENICDSENPDHNEVPNNETTDNNESADDHETTDNNESADDNNENPEDNNKNTDDNEENPNNNENTYGNNFFKGGFWGSHGNNQDSSDSDNEADEASDDEDNDGNEGDNEGSDDDGNEGDNEGSDDDDRDIEYYEKVIEDFDKDQADYEDVIEIISDESVEEEGIEEGIQQDEDIYEEGNYEEEGSEDVWEEGEDSDDSDLEDVLQVPNGWANPGKRGKTG
B4: CIRBP (protein, UniProt Q14011 1-172)
chain: MASDEGKLFVGGLSFDTNEQSLEQVFSKYGQISEVVVVKDRETQRSRGFGFVTFENIDDAKDAMMAMNGKSVDGRQIRVDQAGKSSDNRSRGYRGGSAGGRGFFRGGRGRGRGFSRGGGDRGYGGNRFESRSGGYGGSRDYYSSRSQSGGYSDRSSGGSYRDSYDSYATHNE

target: H3K4me1 peptide (C-terminal biotin-tagged 19 amino acid N-terminal peptide of histone H3, mono-methylated on Lys 4) (UniProt P68431); test: affinity purification with mass spectrometry; biotin-tagged H3 peptides incubated with nuclear extract of SW1990 cells, captured on streptavidin agarose, SDS-PAGE with silver staining, bands excised for electrospray-ion trap tandem mass spectrometry; only the target purified

binding, binds:
B1, B2, B3, B4
